In patent US20150010912:
The exact form of at least one protein or probe is not confirmed.

Chains of the proteins cited; added tags and fusions are not shown. A line that says so, or that is headed by a name, gives the form on record, which may keep a tag or linker.
R2Bm DNA binding domain (zinc finger and myb motif) (Bombyx mori), one chain, as listed by the source: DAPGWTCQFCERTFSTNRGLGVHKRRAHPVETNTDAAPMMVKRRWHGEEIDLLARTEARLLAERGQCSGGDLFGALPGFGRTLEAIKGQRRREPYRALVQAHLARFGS

Experiments:
[1] = tested on: R2Bm DNA binding domain (zinc finger and myb motif) (Bombyx mori); assay: EMSA; details: 0.28-8.4 pmol protein; also on-chip binding (Sypro Ruby, I-V) in 50 mM Tris-HCl pH 8.0, 100 mM NaCl, 5 mM MgCl2; purified recombinant protein
[2] = target: EGFR extracellular domain (Leu25-Ser645) Fc fusion (Homo sapiens) (UniProt P00533); assay: binding assay; details: 2'-F C and U (Durascribe transcription), purified recombinant protein
[3] = target: EGFRvIII (expressed on Ink4a/Arf-/- mouse neural stem cells) del6-273 (UniProt P00533); assay: activity assay; details: 2'-F C and U (Durascribe transcription); cell capture on glass, S.D. 143.3; PBS, 5 mM MgCl2, 37 C, 30 min; also FAM fluorescence binding FIG. 21; protein on the cell surface; protein details: retroviral expression

Question: Does “CTTAAGGTAGCAAATGCCTCGTC (double strand) [R2Bm 23 bp target site (large ribosomal subunit rRNA gene)]” bind [1]?
Answer: Result: binds

Question: Does “GGCGCUCCGACCUUAGUCUCUGUGCCGCUAUAAUGCACGGAUUUAAUCGCCGUAGAAAAGCAUGUCAAAGCCGGAACCGUGUAGCACAGCAGAGAAUUAAAUGCCCGCCAUGACCAG [anti-EGFR RNA aptamer (extended)]” bind ([2]; break-junction conductance increase on EGFR capture, none on control without aptamer, EGFR construct and aptamer sequence not specified in this example)?
Answer: Result: binds

Question: What about the Kd ([2]; method not stated, Kd quoted for selected aptamer before extension with capture sequence) of the same sequence?
Answer: Its Kd is 2.4 nM.

Question: And the functional effect of the aptamer [3]?
Answer: Its functional effect of the aptamer is 392 cells/mm2.
